We go through 2 molecules from US20080311111A1.

By UniProt entry, the sequences of proteins in these tests, tags left out. Where a name states a change or a piece, a line headed by the entry shows the natural chain unless it says otherwise. Residues count along the entry.
UniProt P14778: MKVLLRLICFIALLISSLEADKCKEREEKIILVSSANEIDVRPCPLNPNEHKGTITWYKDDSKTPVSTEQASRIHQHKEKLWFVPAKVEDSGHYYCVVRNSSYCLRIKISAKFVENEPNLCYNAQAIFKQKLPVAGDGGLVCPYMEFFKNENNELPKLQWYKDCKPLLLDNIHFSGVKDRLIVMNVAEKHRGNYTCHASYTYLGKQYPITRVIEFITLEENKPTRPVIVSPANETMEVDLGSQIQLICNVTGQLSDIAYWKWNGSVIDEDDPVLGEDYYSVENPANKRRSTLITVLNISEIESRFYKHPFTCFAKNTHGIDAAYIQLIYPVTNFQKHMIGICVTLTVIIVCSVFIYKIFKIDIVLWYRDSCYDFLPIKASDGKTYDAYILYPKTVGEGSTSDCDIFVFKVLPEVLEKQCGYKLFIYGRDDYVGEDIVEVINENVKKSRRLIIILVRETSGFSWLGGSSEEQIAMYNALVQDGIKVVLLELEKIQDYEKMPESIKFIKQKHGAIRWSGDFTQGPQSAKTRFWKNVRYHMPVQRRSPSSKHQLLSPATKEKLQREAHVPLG
IL-1R1-Fc fusion protein (Axxora): residues 18-336 of P14778
recombinant IL-1R1 (R&D Systems): residues 18-332 of P14778
UniProt P18510, residues 26-177: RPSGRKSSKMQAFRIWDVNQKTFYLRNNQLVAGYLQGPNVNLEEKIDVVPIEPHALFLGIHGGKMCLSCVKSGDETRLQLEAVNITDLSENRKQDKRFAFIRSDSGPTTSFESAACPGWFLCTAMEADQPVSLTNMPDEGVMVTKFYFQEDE

Experiment [1] has as its target recombinant IL-1R1 (R&D Systems) (UniProt P14778). Kind of experiment: SPR (BIACORE 3000), IL-1R1 on CM5 chip, 100 nM IL-1ra.
Experiment [2] has as its target IL-1R1-Fc fusion protein (Axxora) (UniProt P14778). As to the kind of experiment: competition ELISA, IL-1R1-Fc coated, competitor 500 pM IL-1ra. On the technique in general: An ELISA detects its analyte on a solid surface through an enzyme-linked reagent.
For experiment [3] the target is unchanged. As to the kind of experiment: competition ELISA, IL-1R1 coated plate, competitor 500 pM IL-1ra.

No constants are given. Whether binding was seen depends on the method and setting. Some results given as binding are weak or reduced against the parent protein; the word gives no strength.

Turning to “Interleukin 1 receptor antagonist (IL-1ra) (from UniProt P18510 26-177) (ligand)”, the binding result in experiment [1] was “binds”.

B1: Interleukin-1α (IL-1α) (ligand, UniProt P01583 113-271, looked up)
chain: SAPFSFLSNVKYNFMRIIKYEFILNDALNQSIIRANDQYLTAAALHNLDEAVKFDMGAYKSSKDDAKITVILRISKTQLYVTAQDEDQPVLLKEMPEIPKTITGSETNLLFFWETHGTKNYFTSVAHPNLFIATKQDYWVCLAGGPPSITDFQILENQA
As to B1, the binding entry in experiment [2] and in experiment [3] was “binds” each time.
